# Article PMC11602165, “A bacterial transcription activator dedicated to the expression of the enzyme catalyzing the first committed step in fatty acid biosynthesis” (Nucleic Acids Research, 2024)
# No constants are given. Whether binding was seen depends on the method and setting. Some results given as binding are weak or reduced against the parent protein; the word gives no strength. Sequences can lack the tags named with a protein.
# How the values were obtained:
# Assay in all cases: two-hybrid; bacterial adenylate cyclase two-hybrid; the same AccR variant in pKT25 and pUT18C, co-transformed into E. coli BTH101; LB plates with X-gal and 0.5 mM IPTG, 30°C, 24 h; β-galactosidase activity in Miller Units
# [1] = biological target: AccR wild type, bacterial adenylate cyclase two-hybrid fusions (Shewanella oneidensis) (UniProt Q8EIK0)
# [2] = biological target: AccR S103A, bacterial adenylate cyclase two-hybrid fusions (Shewanella oneidensis) (UniProt Q8EIK0)
# [3] = biological target: AccR E105A, bacterial adenylate cyclase two-hybrid fusions (Shewanella oneidensis) (UniProt Q8EIK0)
binder,measurement,setting,value
"AccR wild type, bacterial adenylate cyclase two-hybrid fusions (protein, UniProt Q8EIK0 1-303) MPDLNGMMLFAAVVRAKGFSQAARETGHPKSTISRKIAQLEEELGVRLLQRDTRNLSLTQVGALFYQHCDSIRNEVEAAKAVIESTHDDVSGSLRIAIPVSFSQELIANLCSGFMRLYPNVELDVQFTDNDIGLVGEGYDIAIKYGPLQSSDLVARLLFERQPILVASPGYLKTRGTPATPKELSDHSGILLGTSRSAPIWPLGKGTRKTMVSFQRKVRVNSPIMVKQLALDDFGIAMLSNSACKTELANGQLVPILQEWPMEPFKVYGVYSSRRQLATNISAFLDFFVKRFSSQESLQSLMG",binding,[1],binds
"AccR S103A, bacterial adenylate cyclase two-hybrid fusions (protein, UniProt Q8EIK0 1-303) MPDLNGMMLFAAVVRAKGFSQAARETGHPKSTISRKIAQLEEELGVRLLQRDTRNLSLTQVGALFYQHCDSIRNEVEAAKAVIESTHDDVSGSLRIAIPVSFAQELIANLCSGFMRLYPNVELDVQFTDNDIGLVGEGYDIAIKYGPLQSSDLVARLLFERQPILVASPGYLKTRGTPATPKELSDHSGILLGTSRSAPIWPLGKGTRKTMVSFQRKVRVNSPIMVKQLALDDFGIAMLSNSACKTELANGQLVPILQEWPMEPFKVYGVYSSRRQLATNISAFLDFFVKRFSSQESLQSLMG",binding,[2],binds
"AccR E105A, bacterial adenylate cyclase two-hybrid fusions (protein, UniProt Q8EIK0 1-303) MPDLNGMMLFAAVVRAKGFSQAARETGHPKSTISRKIAQLEEELGVRLLQRDTRNLSLTQVGALFYQHCDSIRNEVEAAKAVIESTHDDVSGSLRIAIPVSFSQALIANLCSGFMRLYPNVELDVQFTDNDIGLVGEGYDIAIKYGPLQSSDLVARLLFERQPILVASPGYLKTRGTPATPKELSDHSGILLGTSRSAPIWPLGKGTRKTMVSFQRKVRVNSPIMVKQLALDDFGIAMLSNSACKTELANGQLVPILQEWPMEPFKVYGVYSSRRQLATNISAFLDFFVKRFSSQESLQSLMG",binding,[3],binds
